From article PMC7595419
These are yes or no findings as the source states them, for the method shown. For part of these data: Binding seen in cells or lysates may run through a third protein. For part of these data: Tags and fused reporters may be left off the sequences shown.

T1: LexA_(DBDwt)-InvF (Salmonella Typhimurium) (UniProt P69343)
T1 sequence: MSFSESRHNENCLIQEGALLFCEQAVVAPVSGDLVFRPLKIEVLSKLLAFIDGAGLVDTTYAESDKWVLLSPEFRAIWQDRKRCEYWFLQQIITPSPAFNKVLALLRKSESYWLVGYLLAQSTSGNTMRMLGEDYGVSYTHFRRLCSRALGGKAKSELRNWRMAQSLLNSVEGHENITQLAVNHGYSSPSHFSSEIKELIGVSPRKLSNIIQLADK

T2: MBP-InvF (expressed in Salmonella invF::Flag strain) (Salmonella Typhimurium) (UniProt P69343)
T2 sequence: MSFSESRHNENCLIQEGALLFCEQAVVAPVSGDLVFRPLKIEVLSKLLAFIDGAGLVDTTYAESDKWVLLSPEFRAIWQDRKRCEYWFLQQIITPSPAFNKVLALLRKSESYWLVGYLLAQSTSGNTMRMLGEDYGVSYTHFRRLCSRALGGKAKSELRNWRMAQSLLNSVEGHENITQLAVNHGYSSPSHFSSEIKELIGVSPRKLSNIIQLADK


How the values were obtained:
[1] = biological target: T1, LexA_(DBDwt)-InvF (Salmonella Typhimurium); assay: two-hybrid
[2] = biological target: T1, LexA_(DBDwt)-InvF (Salmonella Typhimurium); assay: two-hybrid; LexA-based bacterial two-hybrid, homodimer system in E. coli SU101, with SicA supplied in trans (pTOPO-SicA)
[3] = biological target: T2, MBP-InvF (expressed in Salmonella invF::Flag strain) (Salmonella Typhimurium); assay: pull-down

| Binder | binding [1] | binding [2] | binding [3] |
| --- | --- | --- | --- |
| LexA_(DBDwt)-InvF (protein, UniProt P69343 1-216) MSFSESRHNENCLIQEGALLFCEQAVVAPVSGDLVFRPLKIEVLSKLLAFIDGAGLVDTTYAESDKWVLLSPEFRAIWQDRKRCEYWFLQQIITPSPAFNKVLALLRKSESYWLVGYLLAQSTSGNTMRMLGEDYGVSYTHFRRLCSRALGGKAKSELRNWRMAQSLLNSVEGHENITQLAVNHGYSSPSHFSSEIKELIGVSPRKLSNIIQLADK | no binding | no binding | – |
| InvF-Flag (genomic version) (protein, UniProt P69343 1-216) MSFSESRHNENCLIQEGALLFCEQAVVAPVSGDLVFRPLKIEVLSKLLAFIDGAGLVDTTYAESDKWVLLSPEFRAIWQDRKRCEYWFLQQIITPSPAFNKVLALLRKSESYWLVGYLLAQSTSGNTMRMLGEDYGVSYTHFRRLCSRALGGKAKSELRNWRMAQSLLNSVEGHENITQLAVNHGYSSPSHFSSEIKELIGVSPRKLSNIIQLADK | – | – | no binding |
